PubChem BioAssay AID652272, Drosophila RNAi Screening Center | 2013
In all, the deposit lists about 21,000 reagents; shown is a random part of those that have a named target and a result. Of all reagents, 503 (2.4%) were called active. 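Raw plate light values, not normalised; calls rest on replicate z-scores that were not deposited; hits include reporter decreases as well as increases.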 Reagents against one gene are numbered here. A plus sign joins genes that one reagent is predicted to hit. The record does not give: the amount of reagent, the time to read-out.

Purpose: 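Genome-wide knock-down search for components of Hedgehog signalling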 (primary screen)
System: Drosophila clone 8 (Cl8) cells
Knock-down reagent: long dsRNA against Drosophila genes
Measured: 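Plate reader light from a firefly reporter under a ptc promoter fragment that responds to Hedgehog, with Renilla light as transfection reference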
Scale: firefly Hh reporter signal: higher = more ptc reporter light; Renilla reference signal: higher = more Renilla control light
Hit rule: 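Hit when the z-score averaged over two replicates is under -2 or over +3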
Meaning of the calls: active = hit: reporter lowered or raised; inactive = not a hit

gene knocked down	dsRNA no.	firefly Hh reporter signal, replicate 1	firefly Hh reporter signal, replicate 2	firefly Hh reporter signal, replicate 3	Renilla reference signal, replicate 1	Renilla reference signal, replicate 2	Outcome
CG11474 (GeneID 37514)	1	1.16e5	1.24e5		4713	4839	inactive
CG1598 (GeneID 35690)	1	1.31e5	61531		2746	4370	inactive
CG11695 (GeneID 32106)	1	75562	46149		4544	1328	inactive
Rpn5 (GeneID 40717)	1	91273	63256		4460	3210	inactive
Srp9 (GeneID 38883)	1	51368	66484		6600	4090	inactive
vir-1 (GeneID 34652)	1	84945	41689		2181	3969	inactive
vir-1 (GeneID 34652)	2	55968	23628		1897	2628	inactive
CG32855 (GeneID 318250)	1	40305	1.67e5		8730	2950	inactive
CG31915 (GeneID 319025)	1	57483	50560		1239	4603	inactive
Dus4 (GeneID 35179)	1	58598	68316		2402	2754	inactive
CG34228 (GeneID 5740377)	1	1.25e5	2.59e5		3235	10065	inactive
Reps (GeneID 34542)	1	84220	77688		2907	6234	inactive
AstA-R2 (GeneID 43393)	1	91480	89242		2553	2476	inactive
CG6974 (GeneID 41815)	1	55654	81632		1692	2115	inactive
tok (GeneID 42944)	1	87120	80216		2905	2980	inactive
CR43361 (GeneID 12798289)	1	89769	2.46e5		2204	8290	inactive
rt (GeneID 39297)	1	47844	55416	45970	5543	2733	inactive
Ir67b (GeneID 39194)	1	76544	50597	62424	4131	4121	inactive
Opbp (GeneID 246618)	1	92893	53449		2560	5739	inactive
Rap1 (GeneID 38244)	1	1.06e5	53042		5181	2802	inactive
CG33914 (GeneID 3772464)	1	1.31e5	1.74e5		3338	7197	inactive
CG33914 (GeneID 3772464)	2	1.57e5	2.04e5		3965	9696	inactive
Amph (GeneID 36383)	1	98581	62272		5095	2248	inactive
CG12025 (GeneID 38246)	1	67240	42529		2109	3289	inactive
Or23a (GeneID 33450)	1	1.06e5	68804		2560	1618	inactive
CG33969 (GeneID 40252)	1	75555	73961		2509	1676	inactive
CG13970 (GeneID 2768911)	1	65894	52057		1792	4631	inactive
CG6178 (GeneID 42867)	1	1.07e5	54025		4301	2225	inactive
CG31206 (GeneID 318627)	1	57545	2.31e5		13504	5435	inactive
CG33768 (GeneID 3771840)	1	79446	86189		3307	1778	inactive
Rad1 + Sws1	1	1.24e5	99489		2858	2427	inactive
CG3776 (GeneID 37996)	1	70304	79691		2054	3122	inactive
CG10934 (GeneID 37013)	1	96972	76857		5072	3035	inactive
Uba2 (GeneID 44496)	1	64428	88979		1609	6640	inactive
endos (GeneID 39554)	1	91590	75445		3696	2371	inactive
Rpn2 (GeneID 43449)	1	36854	25546		1495	1557	active
CG16710 (GeneID 42790)	1	5.39e5	1.25e5		29440	3875	inactive
rg (GeneID 44531)	1	6.49e5	2.93e5		36800	5644	inactive
rg (GeneID 44531)	2	71067	1.15e5		1666	3093	inactive
rg (GeneID 44531)	3	95881	2.86e5		3634	10488	inactive
brp (GeneID 35977)	1	98074	64227		2560	4632	inactive
brp (GeneID 35977)	2	1.02e5	61208		2627	3984	inactive
brp (GeneID 35977)	3	1.05e5	59387		2673	4897	inactive
CG42505 + CG42504 + CG31358	1	1.13e5	83859		4184	3643	inactive
CG42505 + CG42504 + CG31358	2	4.98e5	1.04e5		3664	3664	inactive
CG42505 + CG42504 + CG31358	3	1.56e5	1.26e5		5865	3401	inactive
Aldh-III (GeneID 45398)	1	1.81e5	90603		6651	2288	inactive
Orco (GeneID 40650)	1	79114	1.33e5		3264	3526	inactive
CG11970 (GeneID 41072)	1	1.17e5	83440		3594	2348	inactive
CG17928 (GeneID 35009)	1	1.17e5	59603		3169	5344	inactive
CG15820 (GeneID 38277)	1	1.05e5	56564		4621	2576	inactive
CG9919 (GeneID 32598)	1	85260	2.63e5		2711	10240	inactive
Papst2 (GeneID 39914)	1	91994	78168		3906	3149	inactive
Prp6 (GeneID 40064)	1	1.40e5	8.32e5	1.27e5	4992	46851	inactive
Cyp317a1 (GeneID 36667)	1	81296	62297		1895	4635	inactive
Tap42 (GeneID 326166)	1	1.02e5	41845		2714	3894	inactive
ACXB (GeneID 53427)	1	95479	49962		2423	4352	inactive
Pfk (GeneID 36060)	1	59677	47668		3344	1779	inactive
CG14195 (GeneID 32911)	1	96269	1.97e5		2982	6554	inactive
CG7460 (GeneID 39973)	1	94592			2489	2792	inactive
CG10098 (GeneID 40851)	1	1.12e5	71424		4288	2656	inactive
bowl (GeneID 33602)	1	1.02e5	66212		3472	2886	inactive
COX8 (GeneID 40390)	1	62806	83170		2025	2069	inactive
be (GeneID 32430)	1	1.75e5	1.20e5		4187	2666	inactive
be (GeneID 32430)	2	70781	1.77e5		1443	7746	inactive
be (GeneID 32430)	3	1.05e5	2.34e5		1810	9753	inactive
gkt + CR31953	1	89571	73736		3837	3221	inactive
CG10336 (GeneID 35122)	1	40688	26121		1796	1072	inactive
salm (GeneID 34569)	1	1.07e5	82311		2824	7690	inactive
Vps33B (GeneID 43077)	1	96357	1.30e5		1431	3330	inactive
CG12828 (GeneID 5740660)	1	98550	60506		2553	4368	inactive
SmydA-2 (GeneID 40075)	1	78631	1.32e5		1516	4120	inactive
Rsod (GeneID 43586)	1	68514	1.07e5		1840	2741	inactive

8 entries from above, set out differently:
| gene knocked down | dsRNA no. | firefly Hh reporter signal, replicate 1 | firefly Hh reporter signal, replicate 2 | firefly Hh reporter signal, replicate 3 | Renilla reference signal, replicate 1 | Renilla reference signal, replicate 2 | Outcome |
| --- | --- | --- | --- | --- | --- | --- | --- |
| Srp9 (GeneID 38883) | 1 | 51368 | 66484 | – | 6600 | 4090 | inactive |
| vir-1 (GeneID 34652) | 1 | 84945 | 41689 | – | 2181 | 3969 | inactive |
| vir-1 (GeneID 34652) | 2 | 55968 | 23628 | – | 1897 | 2628 | inactive |
| CG32855 (GeneID 318250) | 1 | 40305 | 1.67e5 | – | 8730 | 2950 | inactive |
| CG31915 (GeneID 319025) | 1 | 57483 | 50560 | – | 1239 | 4603 | inactive |
| Dus4 (GeneID 35179) | 1 | 58598 | 68316 | – | 2402 | 2754 | inactive |
| CG34228 (GeneID 5740377) | 1 | 1.25e5 | 2.59e5 | – | 3235 | 10065 | inactive |
| Reps (GeneID 34542) | 1 | 84220 | 77688 | – | 2907 | 6234 | inactive |
